According to article PMC9408961:
No constants are given. Whether binding was seen depends on the method and setting. In cells and extracts the contact can be indirect. A result given as binding can be weak or reduced; the word gives no strength. Where a sequence is shown, tags or fusion partners need not be part of it.

Target: OsASR6-YFP^N (rice (Oryza sativa))
Test: split reporter; BiFC: OsASR6-YFP^N and OsNCED1-YFP^C co-transformed into rice protoplasts; YFP read after 24 h by confocal microscopy

binding: binds
B1: OsNCED1-YFP^C (enzyme, UniProt Q6YVJ0 81-638)
chain: AKTKTTRTVIATTNGRAAPSQSRPRRRPAPAAAASAASLPMTFCNALEEVINTFIDPPALRPAVDPRNVLTSNFVPVDELPPTPCPVVRGAIPRCLAGGAYIRNGPNPQHLPRGPHHLFDGDGMLHSLLLPSPASSGDDPVLCSRYVQTYKYLVERDAGAPVLPNVFSGFHGVAGMARGAVVAARVLTGQMNPLEGVGLANTSLAYFAGRLYALGESDLPYAVRVHPDTGEVTTHGRCDFGGRLVMGMTAHPKKDPVTGELFAFRYGPVPPFVTYFRFDPAGNKGADVPIFSVQQPSFLHDFAITERYAIFPEIQIVMKPMDMVVGGGSPVGSDPGKVPRLGVIPRYATDESEMRWFEVPGFNIMHSVNAWEEAGGEELVLVAPNVLSIEHALEHMELVHSCVEKVRINLRTGVVTRTPLAAGNFDFPVINPAFLGRRNRYGYFGVGDPAPKIGGVAKLDFDRAGEGDCTVAQRDFGPGCFAGEPFFVADDVEGNGNEDDGYLVCYVHDEATGENRFVVMDARSPDLEIVAEVQLPGRVPYGFHGLFVTQAELQSQHQ
